The values below come from paper doi:10.1101/846477.

By UniProt entry, the sequences of proteins in these tests, tags left out.
UniProt O94874: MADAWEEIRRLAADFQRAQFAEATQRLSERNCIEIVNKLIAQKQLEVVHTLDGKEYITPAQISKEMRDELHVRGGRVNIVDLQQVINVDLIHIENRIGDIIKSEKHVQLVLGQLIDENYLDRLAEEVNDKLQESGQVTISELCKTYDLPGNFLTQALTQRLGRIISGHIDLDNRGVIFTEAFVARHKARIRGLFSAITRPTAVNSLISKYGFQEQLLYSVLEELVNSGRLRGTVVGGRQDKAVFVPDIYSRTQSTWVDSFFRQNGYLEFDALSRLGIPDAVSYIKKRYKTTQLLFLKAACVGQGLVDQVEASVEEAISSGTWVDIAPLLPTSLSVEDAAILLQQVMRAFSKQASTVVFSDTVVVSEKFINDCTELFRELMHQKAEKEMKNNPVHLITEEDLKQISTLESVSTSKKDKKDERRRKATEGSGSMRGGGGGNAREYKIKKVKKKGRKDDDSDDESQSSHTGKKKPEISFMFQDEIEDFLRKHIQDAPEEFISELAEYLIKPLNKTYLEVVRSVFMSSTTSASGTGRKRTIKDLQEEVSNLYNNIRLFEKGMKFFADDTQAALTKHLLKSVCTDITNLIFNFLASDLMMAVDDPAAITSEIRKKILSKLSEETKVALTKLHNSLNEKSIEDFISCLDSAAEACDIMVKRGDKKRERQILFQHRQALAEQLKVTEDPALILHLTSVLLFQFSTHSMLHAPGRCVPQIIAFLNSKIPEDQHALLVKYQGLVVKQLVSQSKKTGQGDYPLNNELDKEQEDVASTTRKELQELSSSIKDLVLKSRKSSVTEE

In experiment [1] the target is BirA-UFL1 (UniProt O94874). Description: proximity labelling.
Experiment [2] concerns the target BirA-UFL1 (UniProt O94874). Description: proximity labelling. The source holds these as a separate data set.

Where two headings read alike, the source gives them in different places. These are yes or no findings as the source states them, for the method shown. Binding seen in cells or lysates may run through a third protein. A yes stands for co-enrichment or nearness to the bait. Other partners may have been found.

B1: UFSP2 (enzyme, UniProt Q9NUQ7 1-469)
chain: MVISESMDILFRIRGGLDLAFQLATPNEIFLKKALKHVLSDLSTKLSSNALVFRICHSSVYIWPSSDINTIPGELTDASACKNILRFIQFEPEEDIKRKFMRKKDKKLSDMHQIVNIDLMLEMSTSLAAVTPIIERESGGHHYVNMTLPVDAVISVAPEETWGKVRKLLVDAIHNQLTDMEKCILKYMKGTSIVVPEPLHFLLPGKKNLVTISYPSGIPDGQLQAYRKELHDLFNLPHDRPYFKRSNAYHFPDEPYKDGYIRNPHTYLNPPNMETGMIYVVQGIYGYHHYMQDRIDDNGWGCAYRSLQTICSWFKHQGYTERSIPTHREIQQALVDAGDKPATFVGSRQWIGSIEVQLVLNQLIGITSKILFVSQGSEIASQGRELANHFQSEGTPVMIGGGVLAHTILGVAWNEITGQIKFLILDPHYTGAEDLQVILEKGWCGWKGPDFWNKDAYYNLCLPQRPNMI
Turning to B1, the binding result in experiment [1] and in experiment [2] was “binds” in each case.
